Measurements taken from patent publication US20170316147A1, “METHODS AND SYSTEMS FOR IDENTIFYING LIGAND-PROTEIN BINDING SITES” (King Abdullah University of Science and Technology, priority 2014, published 2017).
Several values for one entry are separate records, joined by “and”; a condition that tells them apart may be missing. Equal entries are not always repeated. At least one compound was matched to its structure with a doubt left. No end group written: not given here.

Sequences of proteins named here, by UniProt entry; tags and fusion partners are left off. A line that says so, or that is headed by a name, gives the form on record, which may keep a tag or linker.
UniProt P10415, with tags, fused parts or gaps with the stated changes: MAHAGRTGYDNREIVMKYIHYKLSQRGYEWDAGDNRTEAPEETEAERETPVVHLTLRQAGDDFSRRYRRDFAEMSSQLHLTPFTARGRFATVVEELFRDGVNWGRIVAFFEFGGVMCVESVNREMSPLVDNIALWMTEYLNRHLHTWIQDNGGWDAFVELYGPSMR

Target: T1, Bcl-2 (Homo sapiens, UniProt P10415, A37T/A38E/A42E/A43T/DEL46-86/G36R/G41E/P39A/P44E/P88R/P90T/S87E/V35N/V89E)
T1 construct: made in house
Test: Fluorescence anisotropy binding of fluorescein-labelled Bax-BH3 peptide to Bcl-2
Details: read-out: Kd of fluorescence-labeled peptide for Bcl-2, single binding site model

Sequence: QDASTKKLSECLRRIGDELDSNMELQRMIAD [Bax-BH3 peptide, reference compound]
- Kd: 128 nM and ~128 nM
